Test results reported in the supplement of paper PMC10849652.
The list shows a part of the results.

Chains of the proteins cited; added tags and fusions are not shown. Lines headed by an entry give the natural chain unless they say otherwise; changes in a name come on top.
UniProt Q9HD20: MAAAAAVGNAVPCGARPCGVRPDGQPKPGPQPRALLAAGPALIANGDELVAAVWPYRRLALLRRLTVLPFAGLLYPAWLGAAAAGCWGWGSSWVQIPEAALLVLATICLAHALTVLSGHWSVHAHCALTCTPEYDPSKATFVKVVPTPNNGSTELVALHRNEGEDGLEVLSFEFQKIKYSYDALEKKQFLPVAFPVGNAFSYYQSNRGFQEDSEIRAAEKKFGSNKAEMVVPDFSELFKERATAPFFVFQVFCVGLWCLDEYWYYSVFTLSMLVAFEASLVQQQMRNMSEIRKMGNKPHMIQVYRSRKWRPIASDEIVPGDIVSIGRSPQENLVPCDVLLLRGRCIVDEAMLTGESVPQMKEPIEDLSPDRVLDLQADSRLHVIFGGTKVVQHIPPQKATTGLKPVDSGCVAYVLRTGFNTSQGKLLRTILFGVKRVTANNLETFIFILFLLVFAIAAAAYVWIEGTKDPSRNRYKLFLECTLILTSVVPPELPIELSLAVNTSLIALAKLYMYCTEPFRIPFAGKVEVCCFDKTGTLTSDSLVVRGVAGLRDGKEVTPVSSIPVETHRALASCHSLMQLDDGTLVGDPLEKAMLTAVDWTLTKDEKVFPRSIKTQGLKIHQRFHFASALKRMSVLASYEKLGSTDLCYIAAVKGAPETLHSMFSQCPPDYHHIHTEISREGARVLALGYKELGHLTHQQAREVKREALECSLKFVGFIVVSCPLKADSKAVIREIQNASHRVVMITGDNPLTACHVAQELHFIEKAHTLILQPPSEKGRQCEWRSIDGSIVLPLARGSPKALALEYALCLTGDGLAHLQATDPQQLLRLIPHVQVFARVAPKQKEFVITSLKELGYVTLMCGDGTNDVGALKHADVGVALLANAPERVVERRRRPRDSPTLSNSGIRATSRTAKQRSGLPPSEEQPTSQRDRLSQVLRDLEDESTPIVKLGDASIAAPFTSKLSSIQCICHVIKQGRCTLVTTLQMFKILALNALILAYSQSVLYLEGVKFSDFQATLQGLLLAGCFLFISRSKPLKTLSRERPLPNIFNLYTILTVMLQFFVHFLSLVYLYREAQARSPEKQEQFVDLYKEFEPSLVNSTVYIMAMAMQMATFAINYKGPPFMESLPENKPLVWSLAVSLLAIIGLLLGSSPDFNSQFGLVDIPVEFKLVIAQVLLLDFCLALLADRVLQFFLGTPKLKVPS
UniProt Q96IX5: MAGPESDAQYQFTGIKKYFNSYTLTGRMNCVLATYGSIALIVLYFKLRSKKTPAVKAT
UniProt Q9Y5K8, whole entry, looked up: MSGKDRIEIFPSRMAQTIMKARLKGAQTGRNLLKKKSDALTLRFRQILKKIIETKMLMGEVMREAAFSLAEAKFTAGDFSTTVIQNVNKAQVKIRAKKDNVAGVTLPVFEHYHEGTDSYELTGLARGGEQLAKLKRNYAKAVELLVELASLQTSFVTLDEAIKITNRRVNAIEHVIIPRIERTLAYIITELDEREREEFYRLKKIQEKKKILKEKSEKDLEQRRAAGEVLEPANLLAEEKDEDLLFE
UniProt P98194: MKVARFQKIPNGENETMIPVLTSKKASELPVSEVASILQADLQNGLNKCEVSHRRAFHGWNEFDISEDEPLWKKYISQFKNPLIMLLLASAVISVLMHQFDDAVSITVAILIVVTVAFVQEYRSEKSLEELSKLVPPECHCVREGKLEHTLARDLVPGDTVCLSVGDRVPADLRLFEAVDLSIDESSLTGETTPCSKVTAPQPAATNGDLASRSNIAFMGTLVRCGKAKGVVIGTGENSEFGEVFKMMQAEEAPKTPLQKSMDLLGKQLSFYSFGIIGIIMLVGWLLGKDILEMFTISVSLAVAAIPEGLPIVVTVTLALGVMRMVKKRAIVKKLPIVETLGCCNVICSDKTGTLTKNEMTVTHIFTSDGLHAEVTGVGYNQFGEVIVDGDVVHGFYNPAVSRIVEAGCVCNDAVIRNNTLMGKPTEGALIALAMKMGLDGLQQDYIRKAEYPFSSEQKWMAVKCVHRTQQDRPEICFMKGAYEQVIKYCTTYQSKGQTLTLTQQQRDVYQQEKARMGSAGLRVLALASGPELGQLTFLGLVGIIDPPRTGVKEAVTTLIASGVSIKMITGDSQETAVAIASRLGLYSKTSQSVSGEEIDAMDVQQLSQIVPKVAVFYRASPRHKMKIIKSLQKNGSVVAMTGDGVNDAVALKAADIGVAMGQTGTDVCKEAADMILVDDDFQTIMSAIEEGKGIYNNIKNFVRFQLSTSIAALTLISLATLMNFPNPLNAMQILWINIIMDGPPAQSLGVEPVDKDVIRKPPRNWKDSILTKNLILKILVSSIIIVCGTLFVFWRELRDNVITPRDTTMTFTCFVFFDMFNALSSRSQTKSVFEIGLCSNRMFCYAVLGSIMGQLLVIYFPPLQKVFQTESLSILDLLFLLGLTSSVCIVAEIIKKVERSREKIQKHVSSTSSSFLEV
UniProt P16615: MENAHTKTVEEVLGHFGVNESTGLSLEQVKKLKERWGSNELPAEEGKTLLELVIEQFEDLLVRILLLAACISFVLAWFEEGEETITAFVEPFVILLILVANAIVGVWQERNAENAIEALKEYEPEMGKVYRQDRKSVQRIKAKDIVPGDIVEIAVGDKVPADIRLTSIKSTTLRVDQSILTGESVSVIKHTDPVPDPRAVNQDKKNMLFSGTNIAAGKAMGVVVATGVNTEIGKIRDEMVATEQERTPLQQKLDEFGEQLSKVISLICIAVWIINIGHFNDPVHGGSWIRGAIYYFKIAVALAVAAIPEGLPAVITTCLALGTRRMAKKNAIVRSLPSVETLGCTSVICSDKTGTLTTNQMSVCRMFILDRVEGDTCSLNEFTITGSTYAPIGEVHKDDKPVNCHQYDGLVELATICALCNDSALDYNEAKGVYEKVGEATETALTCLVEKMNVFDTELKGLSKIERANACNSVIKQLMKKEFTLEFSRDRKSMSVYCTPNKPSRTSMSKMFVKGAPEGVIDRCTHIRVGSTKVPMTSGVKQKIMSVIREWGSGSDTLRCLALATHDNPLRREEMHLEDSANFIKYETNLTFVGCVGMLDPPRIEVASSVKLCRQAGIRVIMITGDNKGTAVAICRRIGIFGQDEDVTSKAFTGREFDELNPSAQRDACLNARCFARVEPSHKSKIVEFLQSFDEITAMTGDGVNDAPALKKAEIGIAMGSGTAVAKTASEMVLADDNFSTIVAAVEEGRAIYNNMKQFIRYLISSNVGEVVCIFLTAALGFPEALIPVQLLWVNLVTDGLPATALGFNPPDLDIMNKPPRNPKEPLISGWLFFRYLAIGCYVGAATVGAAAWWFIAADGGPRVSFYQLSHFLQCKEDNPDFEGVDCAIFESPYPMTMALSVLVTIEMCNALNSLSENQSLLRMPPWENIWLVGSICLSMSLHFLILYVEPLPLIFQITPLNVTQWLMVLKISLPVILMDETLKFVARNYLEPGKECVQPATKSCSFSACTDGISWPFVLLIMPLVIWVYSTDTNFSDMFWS
UniProt Q8NB49: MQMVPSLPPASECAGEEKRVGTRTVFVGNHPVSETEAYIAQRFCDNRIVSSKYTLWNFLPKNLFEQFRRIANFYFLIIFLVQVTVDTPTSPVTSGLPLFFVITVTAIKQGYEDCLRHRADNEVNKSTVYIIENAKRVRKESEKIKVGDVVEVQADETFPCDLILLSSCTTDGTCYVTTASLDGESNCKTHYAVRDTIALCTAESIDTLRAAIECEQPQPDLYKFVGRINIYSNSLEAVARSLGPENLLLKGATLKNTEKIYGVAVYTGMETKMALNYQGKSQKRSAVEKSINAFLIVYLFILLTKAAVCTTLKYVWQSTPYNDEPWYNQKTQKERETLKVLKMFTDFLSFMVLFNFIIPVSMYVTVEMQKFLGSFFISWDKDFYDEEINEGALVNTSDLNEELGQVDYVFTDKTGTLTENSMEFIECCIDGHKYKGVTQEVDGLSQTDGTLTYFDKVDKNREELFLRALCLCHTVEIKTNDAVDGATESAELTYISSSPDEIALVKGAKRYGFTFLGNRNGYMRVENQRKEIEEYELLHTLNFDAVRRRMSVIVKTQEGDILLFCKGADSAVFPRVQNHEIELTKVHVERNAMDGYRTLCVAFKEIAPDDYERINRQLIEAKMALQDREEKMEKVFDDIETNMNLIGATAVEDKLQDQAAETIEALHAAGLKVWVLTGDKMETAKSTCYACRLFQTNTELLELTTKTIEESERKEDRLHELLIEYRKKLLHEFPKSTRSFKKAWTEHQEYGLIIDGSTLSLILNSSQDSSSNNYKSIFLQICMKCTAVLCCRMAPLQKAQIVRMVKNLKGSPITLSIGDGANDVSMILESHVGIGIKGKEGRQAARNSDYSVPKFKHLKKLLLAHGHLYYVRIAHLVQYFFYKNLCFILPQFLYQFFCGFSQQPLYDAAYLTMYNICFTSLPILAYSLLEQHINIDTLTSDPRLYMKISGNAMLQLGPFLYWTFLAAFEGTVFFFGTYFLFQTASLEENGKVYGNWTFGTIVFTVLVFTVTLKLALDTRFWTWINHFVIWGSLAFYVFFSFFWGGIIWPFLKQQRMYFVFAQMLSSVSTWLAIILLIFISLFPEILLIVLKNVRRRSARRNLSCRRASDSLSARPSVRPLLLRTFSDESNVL
UniProt Q2TAZ0: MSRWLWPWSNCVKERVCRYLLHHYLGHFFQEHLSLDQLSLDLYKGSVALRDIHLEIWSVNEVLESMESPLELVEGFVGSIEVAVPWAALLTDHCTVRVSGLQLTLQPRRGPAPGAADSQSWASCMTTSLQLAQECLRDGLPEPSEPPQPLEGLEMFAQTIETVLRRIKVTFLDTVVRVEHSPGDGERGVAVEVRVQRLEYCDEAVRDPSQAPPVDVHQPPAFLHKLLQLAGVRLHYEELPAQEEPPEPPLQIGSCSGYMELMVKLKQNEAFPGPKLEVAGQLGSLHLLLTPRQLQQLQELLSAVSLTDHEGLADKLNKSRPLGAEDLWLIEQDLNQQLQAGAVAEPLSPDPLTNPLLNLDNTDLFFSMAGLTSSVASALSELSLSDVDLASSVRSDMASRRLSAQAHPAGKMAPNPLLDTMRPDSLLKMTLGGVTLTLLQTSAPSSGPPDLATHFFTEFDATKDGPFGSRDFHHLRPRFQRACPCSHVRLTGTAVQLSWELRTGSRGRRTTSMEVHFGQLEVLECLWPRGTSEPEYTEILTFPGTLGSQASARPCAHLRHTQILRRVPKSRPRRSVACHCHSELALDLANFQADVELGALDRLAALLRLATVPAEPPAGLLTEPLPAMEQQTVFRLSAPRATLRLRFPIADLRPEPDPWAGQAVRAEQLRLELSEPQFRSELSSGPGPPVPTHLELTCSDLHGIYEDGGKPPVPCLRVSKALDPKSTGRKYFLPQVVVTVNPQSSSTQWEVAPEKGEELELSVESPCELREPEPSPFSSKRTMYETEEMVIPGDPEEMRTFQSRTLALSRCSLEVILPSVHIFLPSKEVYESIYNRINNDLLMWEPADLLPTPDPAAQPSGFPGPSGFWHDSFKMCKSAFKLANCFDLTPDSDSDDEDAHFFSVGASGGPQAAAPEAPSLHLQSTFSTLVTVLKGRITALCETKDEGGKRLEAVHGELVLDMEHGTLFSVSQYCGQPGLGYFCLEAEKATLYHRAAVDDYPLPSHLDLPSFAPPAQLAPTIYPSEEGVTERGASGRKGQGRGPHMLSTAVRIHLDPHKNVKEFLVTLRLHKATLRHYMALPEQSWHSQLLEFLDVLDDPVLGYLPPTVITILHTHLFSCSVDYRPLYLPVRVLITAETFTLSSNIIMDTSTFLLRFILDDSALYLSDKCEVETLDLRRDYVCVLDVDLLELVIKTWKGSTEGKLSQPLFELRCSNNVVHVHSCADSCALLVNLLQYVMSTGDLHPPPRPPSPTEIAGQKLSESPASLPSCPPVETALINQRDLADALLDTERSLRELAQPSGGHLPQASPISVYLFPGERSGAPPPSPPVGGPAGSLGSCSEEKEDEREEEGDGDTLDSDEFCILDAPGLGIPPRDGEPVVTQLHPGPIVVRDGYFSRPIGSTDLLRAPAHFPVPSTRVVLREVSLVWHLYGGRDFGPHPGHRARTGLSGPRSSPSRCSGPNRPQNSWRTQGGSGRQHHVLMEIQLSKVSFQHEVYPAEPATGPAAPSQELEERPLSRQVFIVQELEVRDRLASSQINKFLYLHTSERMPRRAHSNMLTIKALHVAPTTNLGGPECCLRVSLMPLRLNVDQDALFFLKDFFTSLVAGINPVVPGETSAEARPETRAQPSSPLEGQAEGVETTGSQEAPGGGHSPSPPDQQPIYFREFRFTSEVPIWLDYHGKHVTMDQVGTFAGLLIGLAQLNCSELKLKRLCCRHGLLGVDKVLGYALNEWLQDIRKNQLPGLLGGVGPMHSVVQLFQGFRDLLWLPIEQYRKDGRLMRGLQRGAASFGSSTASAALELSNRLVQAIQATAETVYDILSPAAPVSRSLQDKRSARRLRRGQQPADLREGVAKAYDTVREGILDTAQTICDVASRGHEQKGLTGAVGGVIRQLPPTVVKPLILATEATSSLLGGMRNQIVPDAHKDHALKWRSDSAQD

Key:
Assay in all cases: log2 fold change, soluble protein after heating vs DMSO (PISA); higher = thermal stabilisation; K562 cells, 10 uM, 30 min; active = over 0.2 and 3.5 SD of the protein, either way, in both replicates (recomputed)
[1] = compound: COC1=CC=C(C=C1)CN2C=CC3=C2C=C(C=C3)C(=O)NO
Outline: (§1)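 K562 cells at 2×10^6 cells/mL were treated with 10 μM compound for 30 min. Aliquots were heated for 3 min across 48°C-58°C, pooled, and extracted in PBS with 0.5% NP-40 at 4°C; soluble protein was the supernatant after 21,000xg for 90 min. Soluble protein was quantified by TMTpro 16plex LC-MS/MS with channel sums equalised, and reported as log2 fold change in thermal stability against DMSO controls, with values from duplicates.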

filanesib = compound: CON(C)C(=O)N1N=C(c2cc(F)ccc2F)S[C@@]1(CCCN)c1ccccc1 [filanesib]
Outline: as §1

zotarolimus = compound: CO[C@H]1C[C@@H]2CC[C@@H](C)[C@@](O)(O2)C(=O)C(=O)N2CCCC[C@H]2C(=O)O[C@H]([C@H](C)C[C@@H]2CC[C@H](n3cnnn3)[C@H](OC)C2)CC(=O)[C@H](C)/C=C(\C)[C@@H](O)[C@@H](OC)C(=O)[C@H](C)C[C@H](C)/C=C/C=C/C=C/1C [zotarolimus]
Outline: as §1

idasanutlin = compound: COc1cc(C(=O)O)ccc1NC(=O)[C@@H]1N[C@@H](CC(C)(C)C)[C@](C#N)(c2ccc(Cl)cc2F)[C@H]1c1cccc(Cl)c1F [idasanutlin]
Outline: as §1

alisertib = compound: COc1cc(Nc2ncc3c(n2)-c2ccc(Cl)cc2C(c2c(F)cccc2OC)=NC3)ccc1C(=O)O [alisertib]
Outline: as §1

[2] = compound: COc1cc2nc(-c3cc(F)ccc3O)nc(N[C@@H]3CNC[C@H]3C(C)(C)O)c2cc1OC
Outline: as §1

gefitinib = compound: COc1cc2ncnc(Nc3ccc(F)c(Cl)c3)c2cc1OCCCN1CCOCC1 [gefitinib]
Outline: as §1

[3] = compound: COc1cccc2cc(-c3nc([C@H]4CC[C@H](C(=O)O)CC4)n4ncnc(N)c34)[nH]c12
Outline: as §1

lapatinib = compound: CS(=O)(=O)CCNCc1ccc(-c2ccc3ncnc(Nc4ccc(OCc5cccc(F)c5)c(Cl)c4)c3c2)o1 [lapatinib]
Outline: as §1

pictilisib = compound: CS(=O)(=O)N1CCN(Cc2cc3nc(-c4cccc5[nH]ncc45)nc(N4CCOCC4)c3s2)CC1 [pictilisib]
Outline: as §1

[4] = compound: CS(=O)(=O)c1ccc(-c2cnc(N)c(C(=O)Nc3ccccc3)n2)cc1
Outline: as §1

crizotinib = compound: C[C@@H](Oc1cc(-c2cnn(C3CCNCC3)c2)cnc1N)c1c(Cl)ccc(F)c1Cl [crizotinib]
Outline: as §1

[5] = compound: C[C@@H]1COCCN1C2=NC(=NC(=C2)C3(CC3)S(=O)(=O)C)C4=C5C=CNC5=CC=C4
Outline: as §1

[6] = compound: C[C@H](C1=CC=C(C=C1)C(=O)NC2=C3C=CNC3=NC=C2)N
Outline: as §1

duvelisib = compound: C[C@H](Nc1ncnc2nc[nH]c12)c1cc2cccc(Cl)c2c(=O)n1-c1ccccc1 [duvelisib]
Outline: as §1

gandotinib = compound: Cc1cc(Nc2cc(CN3CCOCC3)c3nc(C)c(Cc4ccc(Cl)cc4F)n3n2)n[nH]1 [gandotinib]
Outline: as §1

tozasertib = compound: Cc1cc(Nc2cc(N3CCN(C)CC3)nc(Sc3ccc(NC(=O)C4CC4)cc3)n2)n[nH]1 [tozasertib]
Outline: as §1

[7] = compound: Cc1cc(SCc2sc(-c3ccc(C(F)(F)F)cc3)nc2C)ccc1OCC(=O)O
Outline: as §1

doramapimod = compound: Cc1ccc(-n2nc(C(C)(C)C)cc2NC(=O)Nc2ccc(OCCN3CCOCC3)c3ccccc23)cc1 [doramapimod]
Outline: as §1

ispinesib = compound: Cc1ccc(C(=O)N(CCCN)[C@@H](c2nc3cc(Cl)ccc3c(=O)n2Cc2ccccc2)C(C)C)cc1 [ispinesib]
Outline: as §1

Measured: log2 fold change

ATP2B4 (UniProt P23634)
inactive: [1] -0.007 | filanesib 0.11 | zotarolimus -0.039 | idasanutlin 0.001 | alisertib -0.097 | [2] 0.036 | gefitinib 0.043 | [3] 0.103 | lapatinib -0.016 | pictilisib 0.014 | [4] 0.038 | crizotinib 0.126 | [5] 0.069 | [6] -0.048 | duvelisib 0.011 | gandotinib 0 | tozasertib -0.051 | [7] -0.048 | doramapimod -0.017 | ispinesib 0.087

ATP13A1 (UniProt Q9HD20)
inactive: [1] -0.039 | filanesib -0.06 | zotarolimus 0 | idasanutlin -0.105 | alisertib -0.046 | [2] -0.044 | gefitinib -0.023 | [3] 0.01 | lapatinib 0.032 | pictilisib 0.04 | [4] 0.008 | crizotinib 0.095 | [5] 0.045 | [6] -0.072 | duvelisib 0.038 | gandotinib -0.037 | tozasertib 0.011 | [7] -0.013 | doramapimod -0.013 | ispinesib 0.032

ATP5MD (UniProt Q96IX5)
inactive: [1] -0.06 | filanesib 0.031 | zotarolimus -0.013 | idasanutlin 0.11 | alisertib -0.148 | [2] -0.033 | gefitinib 0 | [3] 0.03 | lapatinib 0 | pictilisib 0.004 | [4] 0.084 | crizotinib 0.165 | [5] -0.001 | [6] -0.184 | duvelisib -0.025 | gandotinib 0.109 | tozasertib 0.072 | [7] 0.027 | doramapimod -0.141 | ispinesib -0.009

ASL (UniProt P04424)
inactive: [1] -0.017 | filanesib -0.096 | zotarolimus -0.017 | idasanutlin -0.02 | alisertib -0.024 | [2] 0.018 | gefitinib 0.008 | [3] 0.055 | lapatinib -0.018 | pictilisib 0.05 | [4] 0 | crizotinib -0.002 | [5] 0.034 | [6] -0.016 | duvelisib -0.017 | gandotinib -0.021 | tozasertib -0.034 | [7] -0.04 | doramapimod -0.006 | ispinesib 0.012

ATP6V1D (UniProt Q9Y5K8)
inactive: [1] 0.042 | filanesib -0.015 | zotarolimus -0.003 | idasanutlin 0.006 | alisertib -0.162 | [2] -0.013 | gefitinib -0.061 | [3] -0.002 | lapatinib -0.028 | pictilisib -0.026 | [4] -0.023 | crizotinib -0.177 | [5] 0.032 | [6] 0.061 | duvelisib -0.022 | gandotinib 0.023 | tozasertib 0.003 | [7] -0.024 | doramapimod 0 | ispinesib -0.112

ATP2C1 isoform 7 (UniProt P98194)
inactive: [1] -0.019 | filanesib -0.02 | zotarolimus -0.06 | idasanutlin -0.085 | alisertib -0.038 | [2] -0.039 | gefitinib 0.052 | [3] 0.036 | lapatinib 0.007 | pictilisib 0.1 | [4] -0.044 | crizotinib -0.04 | [5] 0.035 | [6] -0.001 | duvelisib 0.076 | gandotinib 0.027 | tozasertib -0.025 | [7] 0.005 | doramapimod -0.02 | ispinesib -0.195

ATP11B (UniProt Q9Y2G3)
inactive: [1] -0.043 | filanesib 0.041 | zotarolimus -0.041 | idasanutlin -0.055 | alisertib -0.041 | [2] -0.021 | gefitinib -0.022 | [3] 0.141 | lapatinib 0.019 | pictilisib 0.064 | [4] 0.025 | crizotinib 0.031 | [5] 0.033 | [6] -0.019 | duvelisib -0.007 | gandotinib 0.057 | tozasertib -0.046 | [7] -0.016 | doramapimod -0.019 | ispinesib -0.066

ATP2A2 (UniProt P16615)
inactive: [1] -0.021 | filanesib -0.072 | zotarolimus 0.027 | idasanutlin -0.078 | alisertib -0.017 | [2] 0.021 | gefitinib 0.008 | [3] 0.01 | lapatinib -0.001 | pictilisib -0.011 | [4] -0.005 | crizotinib 0.013 | [5] 0.044 | [6] -0.059 | duvelisib 0.015 | gandotinib -0.039 | tozasertib -0.009 | [7] -0.009 | doramapimod -0.011 | ispinesib -0.04

Taken from the listing (2 entries):
ASL (UniProt P04424)
inactive: [1] -0.017 | filanesib -0.096 | zotarolimus -0.017 | idasanutlin -0.02 | alisertib -0.024 | [2] 0.018 | gefitinib 0.008 | [3] 0.055 | lapatinib -0.018 | pictilisib 0.05 | [4] 0 | crizotinib -0.002 | [5] 0.034 | [6] -0.016 | duvelisib -0.017 | gandotinib -0.021 | tozasertib -0.034 | [7] -0.04 | doramapimod -0.006 | ispinesib 0.012

ATP6V1D (UniProt Q9Y5K8)
inactive: [1] 0.042 | filanesib -0.015 | zotarolimus -0.003 | idasanutlin 0.006 | alisertib -0.162 | [2] -0.013 | gefitinib -0.061 | [3] -0.002 | lapatinib -0.028 | pictilisib -0.026 | [4] -0.023 | crizotinib -0.177 | [5] 0.032 | [6] 0.061 | duvelisib -0.022 | gandotinib 0.023 | tozasertib 0.003 | [7] -0.024 | doramapimod 0 | ispinesib -0.112

Continuation.

ARPC2 (UniProt O15144)
inactive: [1] -0.024 | filanesib 0.004 | zotarolimus 0.004 | idasanutlin -0.039 | alisertib -0.01 | [2] 0.048 | gefitinib 0.011 | [3] 0.094 | lapatinib -0.01 | pictilisib 0.023 | [4] 0.042 | crizotinib 0.065 | [5] -0.007 | [6] -0.064 | duvelisib 0.009 | gandotinib 0.038 | tozasertib 0.027 | [7] -0.019 | doramapimod -0.001 | ispinesib 0.06

ARL8A (UniProt Q96BM9)
inactive: [1] 0.037 | filanesib -0.011 | zotarolimus -0.046 | idasanutlin -0.089 | alisertib 0.019 | [2] 0.01 | gefitinib -0.108 | [3] 0.08 | lapatinib -0.034 | pictilisib 0.086 | [4] -0.063 | crizotinib -0.045 | [5] 0.023 | [6] 0.018 | duvelisib 0.12 | gandotinib -0.02 | tozasertib 0.124 | [7] -0.052 | doramapimod -0.011 | ispinesib -0.209

ATM (UniProt Q13315)
inactive: [1] -0.031 | filanesib -0.062 | zotarolimus 0 | idasanutlin -0.118 | alisertib -0.016 | [2] 0.061 | gefitinib 0.01 | [3] 0.003 | lapatinib 0.131 | pictilisib -0.02 | [4] 0.059 | crizotinib -0.105 | [5] 0.099 | [6] -0.087 | duvelisib 0.036 | gandotinib -0.036 | tozasertib 0.036 | [7] -0.025 | doramapimod 0.023 | ispinesib -0.007

ARPC1B (UniProt O15143)
inactive: [1] 0.185 | filanesib 0.018 | zotarolimus 0.138 | idasanutlin -0.045 | alisertib -0.11 | [2] -0.139 | gefitinib 0.059 | [3] 0.04 | lapatinib 0.163 | pictilisib -0.103 | [4] 0.035 | crizotinib -0.005 | [5] -0.1 | [6] -0.257 | duvelisib -0.013 | gandotinib 0.12 | tozasertib 0.086 | [7] 0.037 | doramapimod -0.007 | ispinesib 0.194

ATP11C (UniProt Q8NB49)
inactive: [1] 0.061 | filanesib 0.006 | zotarolimus -0.047 | idasanutlin 0.006 | alisertib -0.034 | [2] 0.063 | gefitinib -0.005 | [3] 0.031 | lapatinib 0.032 | pictilisib 0.092 | [4] 0.029 | crizotinib -0.03 | [5] 0.026 | [6] -0.066 | duvelisib 0.014 | gandotinib -0.006 | tozasertib 0.005 | [7] -0.093 | doramapimod -0.022 | ispinesib -0.046

ASMTL (UniProt O95671)
inactive: [1] -0.092 | filanesib -0.014 | zotarolimus 0.008 | idasanutlin -0.093 | alisertib -0.093 | [2] 0.033 | gefitinib 0.056 | [3] 0.113 | lapatinib 0.007 | pictilisib 0.048 | [4] 0.018 | crizotinib -0.122 | [5] 0.182 | [6] 0.089 | duvelisib 0.012 | gandotinib -0.09 | tozasertib -0.004 | [7] 0.058 | doramapimod 0.02 | ispinesib -0.249

ATG2A isoform 3 (UniProt Q2TAZ0)
inactive: [1] -0.024 | filanesib 0.001 | zotarolimus -0.013 | idasanutlin -0.037 | alisertib -0.055 | [2] 0.034 | gefitinib -0.011 | [3] 0.042 | lapatinib 0.011 | pictilisib 0.092 | [4] 0.017 | crizotinib -0.019 | [5] 0.071 | [6] -0.036 | duvelisib 0.046 | gandotinib -0.048 | tozasertib -0.012 | [7] -0.025 | doramapimod 0.006 | ispinesib -0.016

ATG3 (UniProt Q9NT62)
inactive: [1] -0.016 | filanesib -0.041 | zotarolimus -0.028 | idasanutlin -0.01 | alisertib -0.055 | [2] 0.035 | gefitinib 0.036 | [3] 0.006 | lapatinib -0.05 | pictilisib 0.048 | [4] 0.03 | crizotinib -0.009 | [5] 0.039 | [6] -0.048 | duvelisib 0.039 | gandotinib -0.024 | tozasertib -0.007 | [7] -0.029 | doramapimod 0.007 | ispinesib 0.05
